Measured values as given in PMC12120245.
These are yes or no findings as the source states them, for the method shown. In cells and extracts the contact can be indirect. Binding can be weak; no strength is given.

Protein sequences, listed by entry. Tags and fused reporters are not part of them. Lines headed by an entry give the natural chain unless they say otherwise; changes in a name come on top.
UniProt Q15652: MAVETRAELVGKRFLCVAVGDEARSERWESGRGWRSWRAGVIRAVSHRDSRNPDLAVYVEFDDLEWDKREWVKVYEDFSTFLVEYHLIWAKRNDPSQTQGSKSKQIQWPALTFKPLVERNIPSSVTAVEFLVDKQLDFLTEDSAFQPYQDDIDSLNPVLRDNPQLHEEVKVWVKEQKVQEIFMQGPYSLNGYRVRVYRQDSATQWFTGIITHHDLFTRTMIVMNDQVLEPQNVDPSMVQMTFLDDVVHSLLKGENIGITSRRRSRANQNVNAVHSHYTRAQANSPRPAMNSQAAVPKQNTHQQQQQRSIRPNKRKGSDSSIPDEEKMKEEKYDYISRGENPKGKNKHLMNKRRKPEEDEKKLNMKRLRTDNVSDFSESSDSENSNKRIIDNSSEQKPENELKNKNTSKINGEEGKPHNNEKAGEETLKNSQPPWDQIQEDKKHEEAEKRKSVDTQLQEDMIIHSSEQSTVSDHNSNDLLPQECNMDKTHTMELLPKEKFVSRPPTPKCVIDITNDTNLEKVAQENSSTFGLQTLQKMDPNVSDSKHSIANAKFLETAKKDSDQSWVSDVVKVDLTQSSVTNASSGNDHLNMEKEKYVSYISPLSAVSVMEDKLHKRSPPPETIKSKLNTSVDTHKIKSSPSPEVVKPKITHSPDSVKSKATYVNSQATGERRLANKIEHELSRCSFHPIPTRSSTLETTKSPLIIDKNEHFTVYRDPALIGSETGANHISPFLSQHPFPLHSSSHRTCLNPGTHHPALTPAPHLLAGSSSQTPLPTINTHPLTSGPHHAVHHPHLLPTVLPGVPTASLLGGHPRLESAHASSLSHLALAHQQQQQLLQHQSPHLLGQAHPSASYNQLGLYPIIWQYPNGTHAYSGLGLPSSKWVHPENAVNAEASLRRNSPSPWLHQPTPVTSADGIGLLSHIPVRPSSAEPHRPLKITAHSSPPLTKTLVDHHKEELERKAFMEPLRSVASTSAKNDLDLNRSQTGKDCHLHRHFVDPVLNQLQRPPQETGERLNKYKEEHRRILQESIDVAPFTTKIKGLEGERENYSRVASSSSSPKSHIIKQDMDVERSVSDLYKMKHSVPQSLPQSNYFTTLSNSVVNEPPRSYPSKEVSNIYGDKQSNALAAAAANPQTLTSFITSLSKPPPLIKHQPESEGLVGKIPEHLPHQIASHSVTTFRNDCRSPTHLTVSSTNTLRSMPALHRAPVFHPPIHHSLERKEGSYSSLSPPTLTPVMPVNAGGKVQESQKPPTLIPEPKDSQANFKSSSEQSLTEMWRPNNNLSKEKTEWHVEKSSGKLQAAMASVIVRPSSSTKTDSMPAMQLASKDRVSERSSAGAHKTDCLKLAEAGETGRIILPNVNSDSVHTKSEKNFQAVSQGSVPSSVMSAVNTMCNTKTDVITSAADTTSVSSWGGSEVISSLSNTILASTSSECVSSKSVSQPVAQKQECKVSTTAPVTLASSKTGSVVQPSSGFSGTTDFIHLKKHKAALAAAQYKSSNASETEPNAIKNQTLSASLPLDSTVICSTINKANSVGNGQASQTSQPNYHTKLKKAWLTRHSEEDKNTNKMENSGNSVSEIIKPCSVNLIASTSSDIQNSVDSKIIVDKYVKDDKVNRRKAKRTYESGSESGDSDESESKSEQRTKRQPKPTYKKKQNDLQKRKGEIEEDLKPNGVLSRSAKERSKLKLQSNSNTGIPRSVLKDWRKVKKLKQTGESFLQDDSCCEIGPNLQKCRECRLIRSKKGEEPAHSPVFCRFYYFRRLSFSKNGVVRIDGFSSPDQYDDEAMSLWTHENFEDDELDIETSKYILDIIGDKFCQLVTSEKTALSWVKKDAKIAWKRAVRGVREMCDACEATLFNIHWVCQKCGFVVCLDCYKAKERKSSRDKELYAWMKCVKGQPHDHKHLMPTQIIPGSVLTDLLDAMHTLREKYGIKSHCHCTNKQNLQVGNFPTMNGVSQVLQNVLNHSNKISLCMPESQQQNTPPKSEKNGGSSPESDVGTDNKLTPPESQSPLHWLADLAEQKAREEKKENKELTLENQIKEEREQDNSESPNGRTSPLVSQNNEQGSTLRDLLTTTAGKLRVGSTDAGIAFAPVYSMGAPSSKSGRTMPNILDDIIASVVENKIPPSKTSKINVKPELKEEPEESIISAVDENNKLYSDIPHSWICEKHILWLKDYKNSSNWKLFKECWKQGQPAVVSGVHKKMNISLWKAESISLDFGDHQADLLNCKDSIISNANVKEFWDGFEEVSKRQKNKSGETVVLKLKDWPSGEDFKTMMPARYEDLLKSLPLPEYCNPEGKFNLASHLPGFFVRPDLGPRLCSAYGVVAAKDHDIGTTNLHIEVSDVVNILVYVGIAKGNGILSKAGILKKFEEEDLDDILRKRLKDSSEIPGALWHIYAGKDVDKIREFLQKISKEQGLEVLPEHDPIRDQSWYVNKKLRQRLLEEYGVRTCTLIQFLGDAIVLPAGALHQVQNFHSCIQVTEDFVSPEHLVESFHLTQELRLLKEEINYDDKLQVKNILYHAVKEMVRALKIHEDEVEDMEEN
UniProt Q01196: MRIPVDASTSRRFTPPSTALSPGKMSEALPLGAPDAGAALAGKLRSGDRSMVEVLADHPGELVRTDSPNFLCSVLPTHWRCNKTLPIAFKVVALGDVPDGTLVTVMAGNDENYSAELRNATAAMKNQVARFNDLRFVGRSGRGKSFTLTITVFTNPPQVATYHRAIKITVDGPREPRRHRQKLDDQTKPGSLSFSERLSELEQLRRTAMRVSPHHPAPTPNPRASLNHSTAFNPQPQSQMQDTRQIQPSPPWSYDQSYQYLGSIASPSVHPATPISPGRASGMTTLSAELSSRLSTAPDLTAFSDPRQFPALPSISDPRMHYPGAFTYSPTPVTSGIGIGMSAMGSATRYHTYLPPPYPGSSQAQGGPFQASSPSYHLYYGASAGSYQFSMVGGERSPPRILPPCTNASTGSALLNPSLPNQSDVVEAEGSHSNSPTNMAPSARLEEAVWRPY

Experiments:
[1] = target: JMJD1C (Jumonji Domain Containing 1C) (human (endogenous in AML cell lines)) (UniProt Q15652); assay: co-IP; JMJD1C antibody or IgG on protein A/G beads with nuclear extracts of six AML cell lines; BC300, 4°C, 4 h; washed with BC150; immunoblot
[2] = target: JMJD1C (Jumonji Domain Containing 1C) (human (endogenous in AML cell lines)) (UniProt Q15652); assay: co-IP; JMJD1C antibody with extracts of HL-60, MOLM-13, THP-1 and Kasumi-1 cells in which flag-mCherry-RUNX1 was induced with doxycycline (1 μg/mL, 48 h); immunoblot

Substance	binding [1]	binding [2]
RUNX1 (AML1) (from UniProt Q01196 1-453)	binds	–
flag-mCherry-RUNX1 (doxycycline-inducible, in AML cells) (from UniProt Q01196 1-453)	–	binds
